These are yes or no findings as the source states them, for the method shown. Some binding calls cover weakened binding; strength is not graded here.
Target: T1, CD30 ligand (CD30L) on HMC1.2 mast cells (human (endogenous in HMC1.2)) (UniProt P32971)
T1 sequence: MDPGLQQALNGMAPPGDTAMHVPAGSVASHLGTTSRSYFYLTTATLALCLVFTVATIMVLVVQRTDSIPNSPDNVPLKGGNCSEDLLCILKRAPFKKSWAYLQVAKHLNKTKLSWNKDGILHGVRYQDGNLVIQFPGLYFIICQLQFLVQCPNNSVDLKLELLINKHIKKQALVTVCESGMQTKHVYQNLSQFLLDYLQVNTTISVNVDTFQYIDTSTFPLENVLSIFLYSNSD
Test: flow cytometry on cells; HMC1.2 cells (5 x 10^5/mL) incubated for 1 h on ice with CD30Fc; target on cells

Chains of the proteins cited; added tags and fusions are not shown. Residues count along the entry.
UniProt P28908, residues 19-385: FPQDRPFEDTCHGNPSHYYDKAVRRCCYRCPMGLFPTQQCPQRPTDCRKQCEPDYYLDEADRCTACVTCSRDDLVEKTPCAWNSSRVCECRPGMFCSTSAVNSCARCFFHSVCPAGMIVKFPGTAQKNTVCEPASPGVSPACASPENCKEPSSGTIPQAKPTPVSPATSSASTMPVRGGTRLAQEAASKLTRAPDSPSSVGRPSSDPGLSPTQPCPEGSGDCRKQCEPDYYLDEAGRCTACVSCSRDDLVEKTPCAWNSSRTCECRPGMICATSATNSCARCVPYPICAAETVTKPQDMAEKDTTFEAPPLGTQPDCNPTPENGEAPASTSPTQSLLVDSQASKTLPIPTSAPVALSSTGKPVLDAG

binding: binds
Substance: CD30Fc (from UniProt P28908 19-385) (Fc fusion)
